{
  "source": "PubChem BioAssay AID602346",
  "about": "(Broad Institute, 2012)",
  "note": "The campaign covered roughly 340,000 compounds. About 1,200 (0.35%) were called active. The shares of active, inactive and inconclusive entries below differ from those in the screen. Rule as the data show it: active = inhibition above about 50% (passing the limit was not always enough); inconclusive = no clear call, values can overlap the other calls; inactive = below about 31%.",
  "data": [
    {"test": "blockers of Vif multimerization in cells – imaging, HEK293T, single point, primary screen (AID 602346)", "details": "Vif self-association by quenched fluorescence, 24 h, at 7.49 µM, active compounds read high", "values": [
      {"smiles": "Cc1cccc(-n2ncc3c(NCc4ccccc4)ncnc32)c1", "inhibition": "inactive: -6.1%"},
      {"smiles": "O=C(CCCN1C(=O)c2ccccc2C1=O)Nc1nncs1", "inhibition": "active: 59.9%"},
      {"smiles": "O=C(Cn1nnc(-c2ccccc2NC(=O)c2ccccc2)n1)Nc1ccc2c(c1)OCCO2", "inhibition": "inactive: 2.26%"},
      {"smiles": "COc1ccc(S(=O)(=O)N(C(C)=O)c2ccc(OC(C)=O)c3ccccc23)cc1[N+](=O)[O-]", "inhibition": "inactive: -27.1%"},
      {"smiles": "C[C@@H]1CCCCO[C@@H](CN(C)C(=O)c2ccncc2)[C@@H](C)CN([C@H](C)CO)C(=O)c2cc(NC(=O)Cc3ccccc3)ccc2O1", "inhibition": "inactive: -4.9%"},
      {"smiles": "CCOc1ccccc1C1C2=C(COC2=O)Nc2cc3c(cc21)OCO3", "note": "(stereo unspecified)", "inhibition": "active: 80.7%"},
      {"smiles": "CC(C)N1C(=O)C(Cc2nc3ccccc3c(=O)n2-c2ccccc2)c2ccccc21", "note": "(stereo unspecified)", "inhibition": "inconclusive: 25.9%"},
      {"smiles": "O=C(NCc1ccccc1)c1ccc(CS(=O)Cc2cccc(Cl)c2)o1", "note": "(stereo unspecified)", "inhibition": "inactive: -6.44%"},
      {"smiles": "COc1ccc(C2(CNC(=O)CCC(=O)O)CCCC2)cc1OC", "inhibition": "inconclusive: 24.1%"},
      {"smiles": "O=C(Nc1ccccc1C(=O)N1CCCCCC1)c1ccccc1", "inhibition": "active: 70.8%"},
      {"smiles": "Cc1ccc(S(=O)(=O)N2CC(C(=O)O)=CC[C@H]2c2ccc3c(c2)OCO3)cc1", "inhibition": "inconclusive: 47.9%"},
      {"smiles": "Cc1ccc(NC(=O)CSC(C)C(=O)OCC(=O)N2CCN(C(=O)c3ccco3)CC2)cc1", "note": "(stereo unspecified)", "inhibition": "active: 61.2%"},
      {"smiles": "Cc1ccc(Oc2ccc(Cl)cc2NC(=O)c2cnccn2)cc1", "inhibition": "inactive: 7.12%"},
      {"smiles": "O=C(Nc1ccc(-n2cnnn2)cc1)C1CCC1", "inhibition": "inconclusive: 45%"},
      {"smiles": "COc1cc(NC(=O)C(F)(F)F)cc(OC)c1", "inhibition": "inconclusive: 49.2%"},
      {"smiles": "O=[N+]([O-])c1cc(-n2cnnn2)ccc1N1CCC(Cc2ccccc2)CC1", "inhibition": "active: 78.2%"},
      {"smiles": "CNS(=O)(=O)c1cccc(C(=O)OCc2cc(Cl)cc3c2OCOC3)c1", "inhibition": "inconclusive: 34.8%"},
      {"smiles": "Cc1ccccc1OCCOc1ccc([N+](=O)[O-])cc1/C=N/n1cnnc1", "inhibition": "active: 69.4%"},
      {"smiles": "O=C(Nc1cccc(Cl)c1)c1csc([C@H]2C[C@H](O)[C@@H](CO)O2)n1", "inhibition": "inactive: 5.22%"},
      {"smiles": "CNS(=O)(=O)c1ccc2c3c(cccc13)C(=O)N2C", "inhibition": "inconclusive: 27.5%"},
      {"smiles": "Cn1c(=O)c2c(nc(NCC3CCCC(CN)C3)n2Cc2ccc(Cl)cc2Cl)n(C)c1=O", "note": "(stereo unspecified)", "inhibition": "active: 51.2%"},
      {"smiles": "N=c1c2c(-c3ccccc3)c(-c3ccccc3)n(Cc3ccccc3)c2ncn1CCCO", "inhibition": "inconclusive: 43.7%"},
      {"smiles": "Cc1nn(Cc2ccccc2)c2ncccc12", "inhibition": "inactive: -12%"},
      {"smiles": "C[C@@H]1CN([C@H](C)CO)C(=O)CCCn2cc(nn2)CO[C@H]1CN(C)S(=O)(=O)c1ccccc1F", "inhibition": "inconclusive: 12.3%"},
      {"smiles": "O=C(CSc1ccc(-c2nc3ccccc3[nH]2)cn1)Nc1ccc2c(c1)OCCO2", "inhibition": "active: 55%"},
      {"smiles": "O=C(Nc1ccc(NC(=O)c2cccs2)cc1Cl)c1ccco1", "inhibition": "inactive: -0.458%"},
      {"smiles": "COc1ccc(NC(=O)CCS(=O)(=O)c2ccc(Br)s2)cc1", "inhibition": "inconclusive: 46.3%"},
      {"smiles": "COc1ccc(/C=C/c2nc(S(=O)(=O)c3ccccc3)c(N(C)C)o2)cc1OC", "inhibition": "inconclusive: 39.9%"},
      {"smiles": "COC1=C/C(=C/c2c(O)c(C#N)c3ccccn23)C=CC1=O", "inhibition": "inconclusive: 25%"},
      {"smiles": "O=C(COC(=O)/C=C/c1ccccc1)Nc1nnc(-c2ccccc2)o1", "inhibition": "inconclusive: 35.8%"},
      {"smiles": "CCOc1ccc(S(=O)(=O)N2CCC(C(=O)NCc3ccncc3)CC2)cc1C", "inhibition": "inconclusive: 35.9%"},
      {"smiles": "O=C(Cc1cn2ccsc2n1)Nc1nc2c(s1)CN(Cc1ccccc1)CC2", "inhibition": "inconclusive: 21.5%"},
      {"smiles": "Cc1c(=O)n(OCc2cccc(F)c2)c2ccccc2[n+]1[O-]", "inhibition": "inconclusive: 48.6%"},
      {"smiles": "CC[n+]1c(C)sc2c(C)cc(C)cc21", "inhibition": "inconclusive: 36.9%"},
      {"smiles": "Cc1ccc(S(=O)(=O)C2(C(=O)N3CCCCCC3)CC2)cc1", "inhibition": "inconclusive: 41.9%"},
      {"smiles": "CC(=O)Nc1ccc(N(C(=O)c2ccccn2)C(C(=O)NC2CCCCC2)c2ccc(F)cc2)cc1", "note": "(stereo unspecified)", "inhibition": "inconclusive: 37.8%"},
      {"smiles": "COc1cc(/C=N/NC(=O)c2ccncc2)ccc1OCC(=O)Nc1cccc([N+](=O)[O-])c1", "inhibition": "inconclusive: 35.8%"},
      {"smiles": "Cc1ccc(N2CCN(C(=S)c3ccc(N(C)C)cc3)CC2)cc1", "inhibition": "active: 66%"},
      {"smiles": "CC(C)[C@@H](N)C(=O)N/N=C/c1ccc2nccnc2c1", "inhibition": "inactive: -1.66%"},
      {"smiles": "O=C(NCCCN1CCCC1)c1ccc2c(c1)N(Cc1cccc(Cl)c1)C(=O)c1ccccc1S2(=O)=O", "inhibition": "inconclusive: 40.3%"},
      {"smiles": "COc1ccc(CCNS(=O)(=O)c2ccc3oc(C(=O)O)c(C)c3c2)cc1OC", "inhibition": "inconclusive: 31%"},
      {"smiles": "COc1ccc(OC)c(S(=O)(=O)Nc2ccc(F)cc2)c1", "inhibition": "inactive: 9.12%"},
      {"smiles": "CC(C)C(NS(=O)(=O)c1cccs1)C(=O)NCCN1CCN(c2ccccc2)CC1", "note": "(stereo unspecified)", "inhibition": "inactive: 2.12%"},
      {"smiles": "COC(=O)CSC1=C(C#N)C(c2ccc(Cl)cc2)C(C(=O)OC)C(=O)N1", "note": "(stereo unspecified)", "inhibition": "inconclusive: 32.4%"},
      {"smiles": "COc1ccc(C2(CNC(=O)C(c3ccccc3)c3ccccc3)CCOCC2)cc1OC", "inhibition": "inconclusive: 47.3%"},
      {"smiles": "Cc1onc(-c2c(F)cccc2Cl)c1C(=O)Nc1nc2c(s1)CCCC2", "inhibition": "inconclusive: 32.4%"},
      {"smiles": "CC1=Nc2ccc3ccccc3c2C1(C)C", "inhibition": "active: 53%"},
      {"smiles": "CCOC(=O)/C(=N\\Nc1ccc(OC)cc1)c1csc(Nc2ccccc2)n1", "inhibition": "inactive: 8.83%"},
      {"smiles": "CCC1(C)Cc2c(C#N)c(SC)nc(N3CCOCC3)c2CO1", "note": "(stereo unspecified)", "inhibition": "active: 52.8%"},
      {"smiles": "Cc1ccc(NC(=O)CSc2nccn(-c3ccc4c(c3)OCCO4)c2=O)cc1", "inhibition": "inconclusive: 38.2%"},
      {"smiles": "O=C(Nc1ccc(NC(=O)C2CC2)cc1)c1cccs1", "inhibition": "inactive: 2.87%"},
      {"smiles": "CC(C)c1nc2sc3c(c2c(=O)o1)CCCC3", "inhibition": "inconclusive: 10%"},
      {"smiles": "O=Cc1cccc2ccc3cccc(C(=O)O)c3c12", "inhibition": "inconclusive: 39.2%"},
      {"smiles": "Cc1ccc(S(=O)(=O)N2CCC(C(=O)OCC(=O)NC(C)c3ccc(F)cc3)CC2)cc1C", "note": "(stereo unspecified)", "inhibition": "inconclusive: 41.6%"},
      {"smiles": "CC1=CC(C)C2C(=O)N(c3ccccc3)C(=O)C2C1", "note": "(stereo unspecified)", "inhibition": "inconclusive: 23.2%"},
      {"smiles": "COc1ccc(-c2oc3ncnc(NCCCN(C)C)c3c2-c2ccc(OC)cc2)cc1", "inhibition": "inactive: 11.2%"}
    ]}
  ]
}
